Drawing on PubChem BioAssay AID2685 (National Center for Advancing Translational Sciences (NCATS), 2010), this text covers cell number change and AC50 for 17 molecules.

One may read the AC50 as the concentration at which the activity in the assay is half-maximal.

The list shows a part of the results. Further columns of the screen follow, without active or inactive calls. Most of these compounds were active or inconclusive in the main read-out, so they are no random draw. The note in brackets gives the kind of curve behind each potency; many fits are weak.

A short description of the assay: qHTS Assay for Lipid Storage Modulators in Drosophila S3 Cells.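 As to cell number change: cells counted by Cell Tracker Red CMTPX staining in the red channel.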 The note with it: BODIPY lipid droplet fluorescence, 18-24 h; for cell number change: measured here: cell count max response, cells fed with added oleic acid. Summed up: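 Drosophila S3 cells loaded with oleic acid (400 uM, as added) and compounds at several concentrations; lipid droplets imaged by 488-nm laser-scanning cytometry, 500–530 nm intensity and object ratio to cell channel. Percent activity normalized to 20 uM Triacsin C.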

The mark [1] stands for this setting: measured here: cell number channel AC50, cells fed with added oleic acid.
The mark [2] stands for this setting: measured here: lipid fluorescence (Fed channel) AC50, cells fed with added oleic acid.

`CCOC(=O)c1ccc(N2C(=O)CC(Sc3ncccn3)C2=O)cc1` (stereo not drawn): the cell number change was -2.75%.
Still for that read-out and setting: then `COc1ccc(/C=C2/SC(=S)N(CCC(=O)N3CCN(C)CC3)C2=O)cc1`, with -17.6%.
Turning to `COC(=O)c1ccccc1S(=O)(=O)N(Cc1cc2cc3c(cc2[nH]c1=O)OCO3)C1CCCCC1`, the cell number change is 61.3%. Moreover, the AC50 under setting [1] was 0.461 µM [rising, full curve]. Besides, the AC50 under setting [2] is 0.411 µM [rising, full curve].
As to `CCc1nnc(NC(=O)c2cc(S(=O)(=O)N(C)c3ccc(OC)cc3)ccc2Cl)s1`, the cell number change was 39.4%. Under setting [1], the AC50 was 3.26 µM [rising, full curve]. Besides, the AC50 under setting [2] is 25.9 µM [rising, single point].
On to `CNS(=O)(=O)c1cnccc1N1CCN(c2cccc(Cl)c2)CC1`, for which the cell number change stood at 8.51%. In addition, the AC50 under setting [1] is 0.0291 µM [falling, full curve, poor fit]. Under setting [2], the AC50 is 29.1 µM [rising, single point].
With `O=C(CNC(=O)c1ccc(Br)cc1)c1ccccc1`, the cell number change is 7.37%.
For `Clc1ccc(/C=C/c2nc3ccccc3[nH]2)c(Cl)c1`, the cell number change is -8.37%. In addition, the AC50 under setting [2] was 0.461 µM [falling, single point].
With `COC(=O)c1ccc(Nc2nc(C)nc3c2nnn3Cc2ccccc2)cc1`, the cell number change was -23.5%.
As for `COc1cccc(NC(=O)COC(=O)c2c(-c3ccccc3)noc2C)c1`, the cell number change came to 0.297%.
In the case of `CCN(C(=O)COC(=O)c1ccc2ccccc2n1)c1c(N)n(Cc2ccccc2)c(=O)[nH]c1=O`, the cell number change is 9.48%. For the same molecule, the AC50 under setting [2] is 20.6 µM [falling, single point].
For `COc1ccc(Cc2nnc(NC(=O)c3ccccc3[N+](=O)[O-])s2)cc1`, the cell number change was -34.2%. Besides, the AC50 under setting [2] is 0.259 µM [falling, full curve, poor fit].
With `Cc1ccc2nc(-c3ccncc3)cc(C(=O)NCCc3ccc(F)cc3)c2c1`, the cell number change was 40%. Under setting [1], the AC50 was 29.1 µM [rising, single point]. Moreover, the AC50 under setting [2] was 23.1 µM [rising, single point].
`CC1CCN(CC(O)CN2c3ccccc3Sc3ccccc32)CC1` (stereo not drawn): the cell number change amounted to 21.3%. For the same molecule, the half-maximal activity concentration (AC50) under setting [2] was 29.1 µM [rising, single point].
For the molecule `O=C(NC1CCOc2ccccc21)c1ccc(Cl)nc1` (stereo not drawn), the cell number change was 2.02%. Besides, the half-maximal activity concentration (AC50) under setting [2] was 9.2 µM [rising, partial curve, poor fit].
Take `Cc1ccc(NC(=O)c2sc3ccccc3c2Cl)nc1`: under setting [2], the AC50 was 4.61 µM [falling, full curve, poor fit].
On to `O=C(Nc1ccccc1)N1CCN(c2nc(-c3ccccc3)ns2)CC1`, for which the cell number change is 57.6%. Moreover, the AC50 under setting [1] was 6.51 µM [rising, single point]. Also, the AC50 under setting [2] was 0.461 µM [rising, single point].
As for `COc1ccc(N(CC(=O)NCc2ccncc2)S(=O)(=O)c2ccc(C)c([N+](=O)[O-])c2)cc1`, the cell number change was -12.2%. Further, the concentration at half-maximal activity (AC50) under setting [2] was 0.651 µM [falling, full curve, poor fit].
